The assay addresses BirA*-fused casein kinase 2 (CK2A1) (UniProt P68400). Nature of the assay: proximity labelling; BioID: BirA*-kinase transfected into HEK293T for 24 h, then 50 uM biotin for 24 h; RIPA lysis, streptavidin magnetic beads 3 h at 4 °C, on-bead digestion, nanoLC/MS/MS, label-free quantification against non-transfected cells (No BirA*); triplicate.

Amino acid sequences for entries named in this document (tags omitted).
UniProt P68400: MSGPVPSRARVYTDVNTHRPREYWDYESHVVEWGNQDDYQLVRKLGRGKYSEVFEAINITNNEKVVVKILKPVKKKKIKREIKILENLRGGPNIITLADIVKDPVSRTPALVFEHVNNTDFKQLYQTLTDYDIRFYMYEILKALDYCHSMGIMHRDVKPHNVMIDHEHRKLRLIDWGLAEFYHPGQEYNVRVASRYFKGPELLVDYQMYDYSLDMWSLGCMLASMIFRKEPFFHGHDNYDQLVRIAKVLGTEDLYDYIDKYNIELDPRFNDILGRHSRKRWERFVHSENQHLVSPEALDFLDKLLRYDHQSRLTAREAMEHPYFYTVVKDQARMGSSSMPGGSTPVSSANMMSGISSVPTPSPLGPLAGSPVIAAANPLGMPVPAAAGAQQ
UniProt Q99459: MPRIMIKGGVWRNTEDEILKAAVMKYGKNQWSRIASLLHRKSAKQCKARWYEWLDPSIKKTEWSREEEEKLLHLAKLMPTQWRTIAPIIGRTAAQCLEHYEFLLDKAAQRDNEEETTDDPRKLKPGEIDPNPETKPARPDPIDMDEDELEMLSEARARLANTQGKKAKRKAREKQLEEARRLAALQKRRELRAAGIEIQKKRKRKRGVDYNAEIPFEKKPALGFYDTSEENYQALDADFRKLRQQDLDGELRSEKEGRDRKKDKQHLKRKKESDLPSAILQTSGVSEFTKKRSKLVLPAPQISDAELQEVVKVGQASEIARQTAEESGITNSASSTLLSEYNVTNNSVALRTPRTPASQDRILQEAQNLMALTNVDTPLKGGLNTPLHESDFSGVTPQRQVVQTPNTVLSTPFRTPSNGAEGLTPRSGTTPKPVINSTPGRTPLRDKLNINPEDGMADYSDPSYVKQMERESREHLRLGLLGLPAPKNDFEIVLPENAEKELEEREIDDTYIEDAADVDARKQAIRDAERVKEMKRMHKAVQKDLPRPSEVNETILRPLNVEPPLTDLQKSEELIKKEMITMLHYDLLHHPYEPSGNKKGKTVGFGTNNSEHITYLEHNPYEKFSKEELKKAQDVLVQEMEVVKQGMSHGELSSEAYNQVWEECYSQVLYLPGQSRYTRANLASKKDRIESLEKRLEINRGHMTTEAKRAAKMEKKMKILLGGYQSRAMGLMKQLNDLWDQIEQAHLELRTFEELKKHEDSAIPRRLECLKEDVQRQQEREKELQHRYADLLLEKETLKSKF

Results are given in words; binding and its absence hold for the method and conditions named. Binding seen in cells or lysates may run through a third protein. A yes stands for co-enrichment or nearness to the bait. Other partners may have been found.

For CDC5L (from UniProt Q99459 1-802), the binding result is “binds”.

B1: THRAP3 (protein, UniProt Q9Y2W1 1-955)
chain: MSKTNKSKSGSRSSRSRSASRSRSRSFSKSRSRSRSLSRSRKRRLSSRSRSRSYSPAHNRERNHPRVYQNRDFRGHNRGYRRPYYFRGRNRGFYPWGQYNRGGYGNYRSNWQNYRQAYSPRRGRSRSRSPKRRSPSPRSRSHSRNSDKSSSDRSRRSSSSRSSSNHSRVESSKRKSAKEKKSSSKDSRPSQAAGDNQGDEAKEQTFSGGTSQDTKASESSKPWPDATYGTGSASRASAVSELSPRERSPALKSPLQSVVVRRRSPRPSPVPKPSPPLSSTSQMGSTLPSGAGYQSGTHQGQFDHGSGSLSPSKKSPVGKSPPSTGSTYGSSQKEESAASGGAAYTKRYLEEQKTENGKDKEQKQTNTDKEKIKEKGSFSDTGLGDGKMKSDSFAPKTDSEKPFRGSQSPKRYKLRDDFEKKMADFHKEEMDDQDKDKAKGRKESEFDDEPKFMSKVIGANKNQEEEKSGKWEGLVYAPPGKEKQRKTEELEEESFPERSKKEDRGKRSEGGHRGFVPEKNFRVTAYKAVQEKSSSPPPRKTSESRDKLGAKGDFPTGKSSFSITREAQVNVRMDSFDEDLARPSGLLAQERKLCRDLVHSNKKEQEFRSIFQHIQSAQSQRSPSELFAQHIVTIVHHVKEHHFGSSGMTLHERFTKYLKRGTEQEAAKNKKSPEIHRRIDISPSTFRKHGLAHDEMKSPREPGYKAEGKYKDDPVDLRLDIERRKKHKERDLKRGKSRESVDSRDSSHSRERSAEKTEKTHKGSKKQKKHRRARDRSRSSSSSSQSSHSYKAEEYTEETEEREESTTGFDKSRLGTKDFVGPSERGGGRARGTFQFRARGRGWGRGNYSGNNNNNSNNDFQKRNREEEWDPEYTPKSKKYYLHDDREGEGSDKWVSRGRGRGAFPRGRGRFMFRKSSTSPKWAHDKFSGEEGEIEDDESGTENREEKDNIQPTTE
For B1, the binding entry was “binds”.

B2: TCOF1 (protein, UniProt Q13428 1-1488)
chain: MAEARKRRELLPLIYHHLLRAGYVRAAREVKEQSGQKCFLAQPVTLLDIYTHWQQTSELGRKRKAEEDAALQAKKTRVSDPISTSESSEEEEEAEAETAKATPRLASTNSSVLGADLPSSMKEKAKAETEKAGKTGNSMPHPATGKTVANLLSGKSPRKSAEPSANTTLVSETEEEGSVPAFGAAAKPGMVSAGQADSSSEDTSSSSDETDVEGKPSVKPAQVKASSVSTKESPARKAAPAPGKVGDVTPQVKGGALPPAKRAKKPEEESESSEEGSESEEEAPAGTRSQVKASEKILQVRAASAPAKGTPGKGATPAPPGKAGAVASQTKAGKPEEDSESSSEESSDSEEETPAAKALLQAKASGKTSQVGAASAPAKESPRKGAAPAPPGKTGPAVAKAQAGKREEDSQSSSEESDSEEEAPAQAKPSGKAPQVRAASAPAKESPRKGAAPAPPRKTGPAAAQVQVGKQEEDSRSSSEESDSDREALAAMNAAQVKPLGKSPQVKPASTMGMGPLGKGAGPVPPGKVGPATPSAQVGKWEEDSESSSEESSDSSDGEVPTAVAPAQEKSLGNILQAKPTSSPAKGPPQKAGPVAVQVKAEKPMDNSESSEESSDSADSEEAPAAMTAAQAKPALKIPQTKACPKKTNTTASAKVAPVRVGTQAPRKAGTATSPAGSSPAVAGGTQRPAEDSSSSEESDSEEEKTGLAVTVGQAKSVGKGLQVKAASVPVKGSLGQGTAPVLPGKTGPTVTQVKAEKQEDSESSEEESDSEEAAASPAQVKTSVKKTQAKANPAAARAPSAKGTISAPGKVVTAAAQAKQRSPSKVKPPVRNPQNSTVLARGPASVPSVGKAVATAAQAQTGPEEDSGSSEEESDSEEEAETLAQVKPSGKTHQIRAALAPAKESPRKGAAPTPPGKTGPSAAQAGKQDDSGSSSEESDSDGEAPAAVTSAQVIKPPLIFVDPNRSPAGPAATPAQAQAASTPRKARASESTARSSSSESEDEDVIPATQCLTPGIRTNVVTMPTAHPRIAPKASMAGASSSKESSRISDGKKQEGPATQVSKKNPASLPLTQAALKVLAQKASEAQPPVARTQPSSGVDSAVGTLPATSPQSTSVQAKGTNKLRKPKLPEVQQATKAPESSDDSEDSSDSSSGSEEDGEGPQGAKSAHTLGPTPSRTETLVEETAAESSEDDVVAPSQSLLSGYMTPGLTPANSQASKATPKLDSSPSVSSTLAAKDDPDGKQEAKPQQAAGMLSPKTGGKEAASGTTPQKSRKPKKGAGNPQASTLALQSNITQCLLGQPWPLNEAQVQASVVKVLTELLEQERKKVVDTTKESSRKGWESRKRKLSGDQPAARTPRSKKKKKLGAGEGGEASVSPEKTSTTSKGKAKRDKASGDVKEKKGKGSLGSQGAKDEPEEELQKGMGTVEGGDQSNPKSKKEKKKSDKRKKDKEKKEKKKKAKKASTKDSESPSQKKKKKKKKTAEQTV
As to B2, the binding result is given as “binds”.

The values above are taken from paper PMC8325102.
